Literature values as cited in paper PMC12299926 (Pharmaceuticals, 2025).

Details: 16 volunteers; subtherapeutic doses with propolis (375 mg/day); ref [21]; cited from earlier work

CC(C)(C(=O)O)c1ccc(C(O)CCCN2CCC(C(O)(c3ccccc3)c3ccccc3)CC2)cc1 (stereo not shown) [fexofenadine]
change of AUC with propolis: decreased
